# Experimental data published in the supplement of paper PMC6411743.
# ± gives the standard deviation of the averaged measurements. This is a selection; strong and weak results do not stand in their true shares.
# Legend:
# Assay in all cases: NP40-soluble protein abundance relative to vehicle (solubility fold change) (ratio); higher = more soluble protein in presence of AMP-PNP
# CDS2 = biological target: T1, CDS2 (UniProt O95674)
# T1 sequence (whole entry): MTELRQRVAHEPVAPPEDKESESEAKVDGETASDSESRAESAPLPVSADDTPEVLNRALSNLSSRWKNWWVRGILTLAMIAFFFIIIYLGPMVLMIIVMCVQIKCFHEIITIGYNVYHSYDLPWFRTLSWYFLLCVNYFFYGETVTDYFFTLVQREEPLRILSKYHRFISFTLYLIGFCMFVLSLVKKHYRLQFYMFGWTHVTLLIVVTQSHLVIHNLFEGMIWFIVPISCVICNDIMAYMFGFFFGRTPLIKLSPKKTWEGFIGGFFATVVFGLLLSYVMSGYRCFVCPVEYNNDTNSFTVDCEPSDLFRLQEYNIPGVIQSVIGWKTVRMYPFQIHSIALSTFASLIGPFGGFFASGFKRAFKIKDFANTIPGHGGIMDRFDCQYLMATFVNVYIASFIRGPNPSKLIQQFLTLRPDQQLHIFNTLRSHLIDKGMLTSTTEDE
# How it was run: (§1)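 Jurkat crude lysate prepared with a Dounce homogeniser was treated at eight concentrations spanning 0.1 to 10 mM, 10 min at room temperature then 3 min at 37 °C. Solubilisation with 0.8% NP40 and benzonase and ultracentrifugation preceded TMT labelling of the supernatant for LC-MS/MS. Fold change against the detergent-processed vehicle was determined per replicate from vsn-normalised intensities, across three independent experiments.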
# DOK2 = biological target: T2, DOK2 (UniProt O60496)
# T2 sequence (whole entry): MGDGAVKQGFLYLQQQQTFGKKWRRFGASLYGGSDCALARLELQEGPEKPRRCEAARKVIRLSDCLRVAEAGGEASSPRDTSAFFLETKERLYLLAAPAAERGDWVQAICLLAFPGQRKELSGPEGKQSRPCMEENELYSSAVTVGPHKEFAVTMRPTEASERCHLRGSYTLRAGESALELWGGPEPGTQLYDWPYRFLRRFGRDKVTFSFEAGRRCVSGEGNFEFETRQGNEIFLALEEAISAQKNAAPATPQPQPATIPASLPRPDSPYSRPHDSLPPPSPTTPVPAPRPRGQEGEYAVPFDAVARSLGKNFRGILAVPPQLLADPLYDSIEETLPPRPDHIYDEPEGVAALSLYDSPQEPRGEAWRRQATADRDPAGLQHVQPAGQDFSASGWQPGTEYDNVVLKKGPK
# How it was run: as §1
# LCMT2 = biological target: T3, LCMT2 (UniProt O60294)
# T3 sequence (whole entry): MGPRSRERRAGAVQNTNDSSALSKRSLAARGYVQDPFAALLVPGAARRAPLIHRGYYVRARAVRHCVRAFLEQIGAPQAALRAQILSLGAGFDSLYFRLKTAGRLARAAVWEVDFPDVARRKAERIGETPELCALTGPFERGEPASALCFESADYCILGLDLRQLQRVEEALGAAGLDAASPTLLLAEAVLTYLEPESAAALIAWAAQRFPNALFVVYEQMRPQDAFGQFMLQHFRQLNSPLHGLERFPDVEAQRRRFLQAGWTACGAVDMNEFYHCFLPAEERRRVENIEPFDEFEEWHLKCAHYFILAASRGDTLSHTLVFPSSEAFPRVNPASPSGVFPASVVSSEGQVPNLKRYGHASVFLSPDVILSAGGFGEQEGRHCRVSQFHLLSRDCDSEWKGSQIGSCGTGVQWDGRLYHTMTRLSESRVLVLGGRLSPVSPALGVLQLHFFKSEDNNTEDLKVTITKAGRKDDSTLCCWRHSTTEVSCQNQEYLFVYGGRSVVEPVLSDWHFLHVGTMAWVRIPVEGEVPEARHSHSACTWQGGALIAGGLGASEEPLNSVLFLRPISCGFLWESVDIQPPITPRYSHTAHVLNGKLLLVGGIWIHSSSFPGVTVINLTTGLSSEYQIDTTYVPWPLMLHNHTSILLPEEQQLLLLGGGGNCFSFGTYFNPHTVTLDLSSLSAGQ
# How it was run: as §1
# MFN2 = biological target: T4, MFN2 (UniProt O95140)
# T4 sequence (whole entry): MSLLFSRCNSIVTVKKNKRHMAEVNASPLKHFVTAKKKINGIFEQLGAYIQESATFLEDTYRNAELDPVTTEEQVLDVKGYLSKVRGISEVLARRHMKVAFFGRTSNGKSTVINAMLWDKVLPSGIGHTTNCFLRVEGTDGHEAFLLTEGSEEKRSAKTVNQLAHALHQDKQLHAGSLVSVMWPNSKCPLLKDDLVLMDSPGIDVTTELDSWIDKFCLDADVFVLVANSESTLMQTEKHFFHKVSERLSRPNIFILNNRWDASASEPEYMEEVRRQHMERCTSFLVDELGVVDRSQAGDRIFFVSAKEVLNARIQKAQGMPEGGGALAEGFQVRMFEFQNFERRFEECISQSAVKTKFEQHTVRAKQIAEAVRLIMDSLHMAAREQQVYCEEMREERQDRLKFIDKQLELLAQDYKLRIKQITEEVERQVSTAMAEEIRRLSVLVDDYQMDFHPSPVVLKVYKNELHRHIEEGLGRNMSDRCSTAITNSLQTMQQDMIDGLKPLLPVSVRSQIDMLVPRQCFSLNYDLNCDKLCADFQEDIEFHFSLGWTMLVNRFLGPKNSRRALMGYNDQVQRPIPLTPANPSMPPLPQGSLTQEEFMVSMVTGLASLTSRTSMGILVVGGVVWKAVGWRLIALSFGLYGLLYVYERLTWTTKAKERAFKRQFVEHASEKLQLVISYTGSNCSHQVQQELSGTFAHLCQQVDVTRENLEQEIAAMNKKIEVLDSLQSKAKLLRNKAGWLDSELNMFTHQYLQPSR
# How it was run: as §1
# PGLS = biological target: T5, PGLS (UniProt O95336)
# T5 sequence (whole entry): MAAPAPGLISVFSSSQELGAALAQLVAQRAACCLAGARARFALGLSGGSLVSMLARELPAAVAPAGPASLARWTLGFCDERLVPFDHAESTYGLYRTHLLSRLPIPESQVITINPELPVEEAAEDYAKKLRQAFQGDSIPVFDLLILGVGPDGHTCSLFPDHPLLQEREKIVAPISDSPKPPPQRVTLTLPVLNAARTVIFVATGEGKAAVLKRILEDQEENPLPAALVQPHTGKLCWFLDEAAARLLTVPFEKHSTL
# How it was run: as §1
smiles,measurement,setting,value
Nc1ncnc2c1ncn2[C@@H]1O[C@H](COP(=O)(O)OP(=O)(O)NP(=O)(O)O)[C@@H](O)[C@H]1O [adenylyl imidodiphosphate],NP40-soluble protein abundance,CDS2; concentration: 1mM,1.015 ± 0.0065
same,NP40-soluble protein abundance,CDS2; concentration: 2mM,1.02 ± 0.034
same,NP40-soluble protein abundance,CDS2; concentration: 4mM,0.993 ± 0.055
same,NP40-soluble protein abundance,CDS2; concentration: 6mM,0.988 ± 0.031
same,NP40-soluble protein abundance,CDS2; concentration: 8mM,0.98 ± 0.04
same,NP40-soluble protein abundance,CDS2; concentration: 10mM,0.995 ± 0.052
same,NP40-soluble protein abundance,DOK2; concentration: 1mM,1.01 ± 0.048
same,NP40-soluble protein abundance,DOK2; concentration: 2mM,0.994 ± 0.041
same,NP40-soluble protein abundance,DOK2; concentration: 4mM,1.01 ± 0.03
same,NP40-soluble protein abundance,DOK2; concentration: 6mM,1.02 ± 0.02
same,NP40-soluble protein abundance,DOK2; concentration: 8mM,0.9749 ± 0.00029
same,NP40-soluble protein abundance,DOK2; concentration: 10mM,1 ± 0.0035
same,NP40-soluble protein abundance,LCMT2; concentration: 1mM,0.973 ± 0.011
same,NP40-soluble protein abundance,LCMT2; concentration: 2mM,0.955 ± 0.023
same,NP40-soluble protein abundance,LCMT2; concentration: 4mM,0.985 ± 0.023
same,NP40-soluble protein abundance,LCMT2; concentration: 6mM,0.987 ± 0.028
same,NP40-soluble protein abundance,LCMT2; concentration: 8mM,0.9927 ± 0.006
same,NP40-soluble protein abundance,LCMT2; concentration: 10mM,0.9858 ± 0.0033
same,NP40-soluble protein abundance,MFN2; concentration: 1mM,1.01 ± 0.064
same,NP40-soluble protein abundance,MFN2; concentration: 2mM,0.956 ± 0.032
same,NP40-soluble protein abundance,MFN2; concentration: 4mM,1.01 ± 0.074
same,NP40-soluble protein abundance,MFN2; concentration: 6mM,0.965 ± 0.037
same,NP40-soluble protein abundance,MFN2; concentration: 8mM,0.986 ± 0.049
same,NP40-soluble protein abundance,MFN2; concentration: 10mM,0.989 ± 0.024
same,NP40-soluble protein abundance,PGLS; concentration: 1mM,0.972 ± 0.046
same,NP40-soluble protein abundance,PGLS; concentration: 2mM,0.962 ± 0.025
same,NP40-soluble protein abundance,PGLS; concentration: 4mM,0.987 ± 0.045

# Laid out differently: entries from further up.
smiles	measurement	setting	value
Nc1ncnc2c1ncn2[C@@H]1O[C@H](COP(=O)(O)OP(=O)(O)NP(=O)(O)O)[C@@H](O)[C@H]1O [adenylyl imidodiphosphate]	NP40-soluble protein abundance	CDS2; concentration: 2mM	1.02 ± 0.034
same	NP40-soluble protein abundance	CDS2; concentration: 6mM	0.988 ± 0.031
same	NP40-soluble protein abundance	CDS2; concentration: 10mM	0.995 ± 0.052
same	NP40-soluble protein abundance	LCMT2; concentration: 6mM	0.987 ± 0.028
same	NP40-soluble protein abundance	MFN2; concentration: 6mM	0.965 ± 0.037
same	NP40-soluble protein abundance	MFN2; concentration: 10mM	0.989 ± 0.024
same	NP40-soluble protein abundance	PGLS; concentration: 4mM	0.987 ± 0.045
